Taken from: PubChem BioAssay AID1224829 (NIAID, 2016)
The whole screen tested about 3,800 reagents; shown is a random part of them. 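Calls cover raised and lowered translocation; gene median uses one vendor's three siRNAs; qiagen siRNAs acted more weakly than ambion siRNAs.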 The numbers tell different reagents against one gene apart. Not all columns of the deposit are shown.

Screen: 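Follow-up of TLR4-NF-kappaB regulators using six separate siRNAs for each gene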 (follow-up of hits)
Cells: mouse RAW264.7 G9 macrophage reporter cells
Reagents: single siRNA against mouse genes, 100 nM
Time to read-out: 2 days of siRNA knock-down, then 40 min of LPS before fixing
Challenge: LPS (Salmonella minnesota R595) at 10 ng/ml
Read-out: 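Imaging of GFP-p65 after 40 min of LPS; nuclear over perinuclear ring intensity ratio, scaled to plate median and non-targeting control wells, given as z-score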
Direction: p65 translocation z-score: higher = more nuclear NF-kappaB p65 after LPS
Rule for the call: 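An siRNA is called active when the mean z-score of its two replicates is above 2 or below -2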
Calls: active = changed p65 translocation (either direction); inactive = no clear change

no.	Target gene	siRNA no.	siRNA vendor or control pool	p65 translocation z-score, replicate mean	Call
1	Ccr2	1	ambion single siRNA	-3.78	active
2	Ccr2	2	ambion single siRNA	-4.55	active
3	Ccr2	3	ambion single siRNA	-1.36	inactive
4	Ccr2	4	qiagen single siRNA	-1.85	inactive
5	Ccr2	5	qiagen single siRNA	-1.85	inactive
6	Ccr2	6	qiagen single siRNA	-1.64	inactive
7	Mrpl51	1	ambion single siRNA	0.228	inactive
8	Mrpl51	2	ambion single siRNA	-0.0428	inactive
9	Mrpl51	3	ambion single siRNA	-1.43	inactive
10	Mrpl51	4	qiagen single siRNA	1.04	inactive
11	Mrpl51	5	qiagen single siRNA	-0.273	inactive
12	Mrpl51	6	qiagen single siRNA	3.41	active
13	Rps4l	1	ambion single siRNA	0.346	inactive
14	Rps4l	2	ambion single siRNA	-2.67	active
15	Rps4l	3	ambion single siRNA	1.24	inactive
16	Rps4l	4	qiagen single siRNA	1.68	inactive
17	Rps4l	5	qiagen single siRNA	-1.36	inactive
18	Rps4l	6	qiagen single siRNA	-4.48	active
19	Kcnj1	1	ambion single siRNA	3.12	active
20	Kcnj1	2	ambion single siRNA	-2.39	active
21	Kcnj1	3	ambion single siRNA	-3.56	active
22	Cercam	1	ambion single siRNA	-0.00229	inactive
23	Cercam	2	ambion single siRNA	-2.75	active
24	Cercam	3	ambion single siRNA	-1.41	inactive
25	Cercam	4	qiagen single siRNA	0.989	inactive
26	Cercam	5	qiagen single siRNA	-0.599	inactive
27	Cercam	6	qiagen single siRNA	-2.6	active
28	Thbs2	1	ambion single siRNA	-1.17	inactive
29	Thbs2	2	ambion single siRNA	-7.34	active
30	Thbs2	3	ambion single siRNA	-2.86	active
31	Thbs2	4	qiagen single siRNA	3.58	active
32	Thbs2	5	qiagen single siRNA	1.63	inactive
33	Thbs2	6	qiagen single siRNA	-2.63	active
34	Trim2	1	ambion single siRNA	1.34	inactive
35	Trim2	2	ambion single siRNA	-3.07	active
36	Trim2	3	ambion single siRNA	-7.72	active
37	Trim2	4	qiagen single siRNA	0.49	inactive
38	Trim2	5	qiagen single siRNA	-0.225	inactive
39	Trim2	6	qiagen single siRNA	-4.27	active

Records listed so far whose gene name starts with M or m (6):
Target gene	siRNA no.	siRNA vendor or control pool	p65 translocation z-score, replicate mean	Call
Mrpl51	1	ambion single siRNA	0.228	inactive
Mrpl51	2	ambion single siRNA	-0.0428	inactive
Mrpl51	3	ambion single siRNA	-1.43	inactive
Mrpl51	4	qiagen single siRNA	1.04	inactive
Mrpl51	5	qiagen single siRNA	-0.273	inactive
Mrpl51	6	qiagen single siRNA	3.41	active

Further entries:
no.	Target gene	siRNA no.	siRNA vendor or control pool	p65 translocation z-score, replicate mean	Call
40	Tnfaip1	1	ambion single siRNA	-3.71	active
41	Tnfaip1	2	ambion single siRNA	-0.624	inactive
42	Tnfaip1	3	ambion single siRNA	-8.55	active
43	Tnfaip1	4	qiagen single siRNA	-1.5	inactive
44	Tnfaip1	5	qiagen single siRNA	1.11	inactive
45	Tnfaip1	6	qiagen single siRNA	0.5	inactive
46	Tmem116	1	ambion single siRNA	-2.26	active
47	Tmem116	2	ambion single siRNA	-2.65	active
48	Tmem116	3	ambion single siRNA	-1.03	inactive
49	Tmem116	4	qiagen single siRNA	1.33	inactive
50	Tmem116	5	qiagen single siRNA	-0.526	inactive
51	Tmem116	6	qiagen single siRNA	-0.137	inactive
52	Itpkb	1	qiagen single siRNA	1.46	inactive
53	Itpkb	2	qiagen single siRNA	1.78	inactive
54	Itpkb	3	qiagen single siRNA	-4.24	active
55	Usp8	1	ambion single siRNA	2.46	active
56	Usp8	2	ambion single siRNA	1.1	inactive
57	Usp8	3	ambion single siRNA	-3.14	active
58	Usp8	4	qiagen single siRNA	-1.07	inactive
59	Usp8	5	qiagen single siRNA	1.04	inactive
60	Usp8	6	qiagen single siRNA	-5.07	active
61	Cyth2	1	ambion single siRNA	-2.81	active
62	Cyth2	2	ambion single siRNA	-3.78	active
63	Cyth2	3	ambion single siRNA	0.33	inactive
64	Cyth2	4	qiagen single siRNA	1.65	inactive
65	Cyth2	5	qiagen single siRNA	0.613	inactive
66	Cyth2	6	qiagen single siRNA	-2.46	active
